Results are given in words; binding and its absence hold for the method and conditions named. Binding seen in cells or lysates may run through a third protein. Some binding calls cover weakened binding; strength is not graded here. For some assays here: Sequences can lack the tags named with a protein.
Key:
[1] = molecular target: T1, FLAG-tagged XPO7 protein (UniProt Q9UIA9); test: co-IP; exogenous Co-IP of HDAC2 and FLAG-XPO7 in HEK293T cells
T1 sequence: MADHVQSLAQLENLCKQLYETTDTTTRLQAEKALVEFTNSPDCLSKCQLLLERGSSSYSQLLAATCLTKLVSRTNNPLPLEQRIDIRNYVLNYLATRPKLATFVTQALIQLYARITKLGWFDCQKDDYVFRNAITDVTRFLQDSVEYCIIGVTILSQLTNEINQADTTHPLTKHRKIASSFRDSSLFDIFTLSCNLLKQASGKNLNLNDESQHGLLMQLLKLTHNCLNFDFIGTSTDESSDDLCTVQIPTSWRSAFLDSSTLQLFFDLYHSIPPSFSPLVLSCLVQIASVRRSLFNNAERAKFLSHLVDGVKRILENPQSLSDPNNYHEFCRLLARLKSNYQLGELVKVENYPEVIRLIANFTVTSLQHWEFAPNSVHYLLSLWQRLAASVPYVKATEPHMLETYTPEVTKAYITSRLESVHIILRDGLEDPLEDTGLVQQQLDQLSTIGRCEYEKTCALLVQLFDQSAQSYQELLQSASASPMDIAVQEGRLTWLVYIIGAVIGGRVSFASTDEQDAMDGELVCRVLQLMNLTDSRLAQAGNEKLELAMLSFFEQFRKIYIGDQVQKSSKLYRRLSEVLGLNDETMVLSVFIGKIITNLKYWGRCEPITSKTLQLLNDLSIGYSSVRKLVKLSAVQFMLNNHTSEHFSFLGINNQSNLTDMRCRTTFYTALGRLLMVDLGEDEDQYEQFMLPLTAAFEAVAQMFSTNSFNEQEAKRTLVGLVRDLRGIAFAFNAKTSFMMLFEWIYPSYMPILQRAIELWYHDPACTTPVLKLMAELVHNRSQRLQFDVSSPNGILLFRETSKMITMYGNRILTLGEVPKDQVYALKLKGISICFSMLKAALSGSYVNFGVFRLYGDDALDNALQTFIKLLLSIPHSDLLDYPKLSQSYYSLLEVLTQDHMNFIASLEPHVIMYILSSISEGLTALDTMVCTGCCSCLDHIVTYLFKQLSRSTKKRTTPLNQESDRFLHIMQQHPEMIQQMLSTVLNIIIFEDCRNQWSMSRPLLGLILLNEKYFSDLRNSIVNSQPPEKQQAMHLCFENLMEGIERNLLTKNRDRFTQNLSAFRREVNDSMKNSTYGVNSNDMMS

Sequences of proteins named here, by UniProt entry; tags and fusion partners are left off.
UniProt Q92769: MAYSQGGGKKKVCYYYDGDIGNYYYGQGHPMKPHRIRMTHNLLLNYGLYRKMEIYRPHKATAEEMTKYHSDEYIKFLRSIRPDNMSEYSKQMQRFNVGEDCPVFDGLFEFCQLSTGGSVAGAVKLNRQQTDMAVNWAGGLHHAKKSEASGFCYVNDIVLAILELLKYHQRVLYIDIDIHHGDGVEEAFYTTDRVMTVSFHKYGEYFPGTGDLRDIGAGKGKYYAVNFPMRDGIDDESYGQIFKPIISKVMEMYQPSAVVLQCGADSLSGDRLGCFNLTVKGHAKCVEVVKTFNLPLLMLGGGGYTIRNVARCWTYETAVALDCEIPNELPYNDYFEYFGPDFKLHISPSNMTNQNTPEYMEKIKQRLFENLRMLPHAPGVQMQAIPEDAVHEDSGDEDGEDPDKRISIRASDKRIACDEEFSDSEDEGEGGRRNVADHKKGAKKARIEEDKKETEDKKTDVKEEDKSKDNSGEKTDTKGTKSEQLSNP

[2] = molecular target: T2, XPO7 (Exportin 7), endogenous in hMSCs (human (endogenous in hMSCs)) (UniProt Q9UIA9); test: co-IP; endogenous Co-IP of HDAC2 and XPO7 in hMSCs
T2 sequence: T1 sequence

| binding [1] | binding [2] | Substance |
| --- | --- | --- |
| binds |  | HDAC2 (histone deacetylase 2) in HEK293T cells (from UniProt Q92769 1-488) |
|  | binds | HDAC2 (histone deacetylase 2), endogenous in hMSCs (from UniProt Q92769 1-488) |
